Reference: the supplement of paper PMC10849652
Some of the results follow.

By UniProt entry, the sequences of proteins in these tests, tags left out. Where a name states a change or a piece, a line headed by the entry shows the natural chain unless it says otherwise.
UniProt Q969V5: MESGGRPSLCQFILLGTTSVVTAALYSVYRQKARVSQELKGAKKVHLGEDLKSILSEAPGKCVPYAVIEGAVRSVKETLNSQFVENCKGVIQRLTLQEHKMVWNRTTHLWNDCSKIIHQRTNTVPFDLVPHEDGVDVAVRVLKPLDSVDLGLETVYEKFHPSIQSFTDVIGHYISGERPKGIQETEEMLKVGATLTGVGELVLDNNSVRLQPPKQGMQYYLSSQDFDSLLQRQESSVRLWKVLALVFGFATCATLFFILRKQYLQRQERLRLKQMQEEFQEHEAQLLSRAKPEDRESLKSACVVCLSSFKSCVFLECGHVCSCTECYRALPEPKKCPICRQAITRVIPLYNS
UniProt Q96QG7: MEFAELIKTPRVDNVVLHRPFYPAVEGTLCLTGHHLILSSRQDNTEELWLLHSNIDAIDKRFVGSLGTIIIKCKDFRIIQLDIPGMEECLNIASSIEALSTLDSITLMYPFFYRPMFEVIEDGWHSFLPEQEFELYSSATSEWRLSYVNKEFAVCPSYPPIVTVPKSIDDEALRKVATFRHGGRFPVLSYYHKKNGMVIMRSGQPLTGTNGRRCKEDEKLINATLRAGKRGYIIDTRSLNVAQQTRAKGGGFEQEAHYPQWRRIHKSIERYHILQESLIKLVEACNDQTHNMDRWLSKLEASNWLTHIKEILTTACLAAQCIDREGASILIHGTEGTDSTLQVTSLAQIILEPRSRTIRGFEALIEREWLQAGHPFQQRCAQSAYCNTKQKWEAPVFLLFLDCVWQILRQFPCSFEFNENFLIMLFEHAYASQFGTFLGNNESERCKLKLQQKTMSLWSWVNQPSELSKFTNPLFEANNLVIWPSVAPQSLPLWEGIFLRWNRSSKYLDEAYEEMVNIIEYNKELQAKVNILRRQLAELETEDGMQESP
UniProt Q13505: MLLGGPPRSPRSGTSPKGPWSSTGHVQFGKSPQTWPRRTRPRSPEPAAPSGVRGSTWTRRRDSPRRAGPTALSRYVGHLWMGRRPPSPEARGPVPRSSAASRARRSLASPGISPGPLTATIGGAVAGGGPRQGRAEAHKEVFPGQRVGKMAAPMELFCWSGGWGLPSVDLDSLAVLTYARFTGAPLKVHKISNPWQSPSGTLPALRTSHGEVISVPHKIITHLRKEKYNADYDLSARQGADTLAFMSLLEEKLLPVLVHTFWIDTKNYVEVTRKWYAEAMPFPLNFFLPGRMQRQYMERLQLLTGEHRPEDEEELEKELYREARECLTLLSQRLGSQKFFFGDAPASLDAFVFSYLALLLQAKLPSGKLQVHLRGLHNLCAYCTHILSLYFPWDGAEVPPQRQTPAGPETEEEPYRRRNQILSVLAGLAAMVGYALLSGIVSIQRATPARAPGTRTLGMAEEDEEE
UniProt Q2M296: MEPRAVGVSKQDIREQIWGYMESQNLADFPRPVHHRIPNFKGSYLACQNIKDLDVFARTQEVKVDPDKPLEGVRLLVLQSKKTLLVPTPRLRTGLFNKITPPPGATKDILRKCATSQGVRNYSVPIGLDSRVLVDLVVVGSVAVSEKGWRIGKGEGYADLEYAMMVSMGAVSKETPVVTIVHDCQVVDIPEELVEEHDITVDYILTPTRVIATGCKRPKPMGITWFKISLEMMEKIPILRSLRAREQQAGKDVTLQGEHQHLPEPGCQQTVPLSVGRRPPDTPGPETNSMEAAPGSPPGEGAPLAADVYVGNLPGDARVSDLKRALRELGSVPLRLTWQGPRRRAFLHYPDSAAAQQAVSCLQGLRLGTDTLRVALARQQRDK

Legend:
Experiment in all cases: log2 fold change, soluble protein after heating vs DMSO (PISA); higher = thermal stabilisation; K562 cells, 10 uM, 30 min; active = over 0.2 and 3.5 SD of the protein, either way, in both replicates (recomputed)
[1] = compound: Cc1ccc(NC(=O)c2ccc(CN3CC[C@H](N(C)C)C3)c(C(F)(F)F)c2)cc1Nc1nccc(-c2cncnc2)n1 [bafetinib]
Outline: (§1)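 Soluble protein was quantified by TMTpro 16plex LC-MS/MS after channel sums were equalised. It was obtained as the supernatant after 21,000xg for 90 min from pooled aliquots of K562 cells (2×10^6 cells/mL, 10 μM compound, 30 min) heated for 3 min across 48°C-58°C and extracted in PBS with 0.5% NP-40 at 4°C. Thermal stability values are relative to control samples and come from duplicates. They are given as log2 fold changes.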

[2] = compound: Cc1cccc(CC(=O)N2CCc3c2ccc(-c2cn(C)c4ncnc(N)c24)c3F)n1
Outline: as §1

[3] = compound: Cc1cn(-c2cc(NC(=O)c3ccc(C)c(Nc4nccc(-c5cccnc5)n4)c3)cc(C(F)(F)F)c2)cn1 [nilotinib]
Outline: as §1

[4] = compound: Cc1nc(Nc2n[nH]c3c2CN(C(=O)N[C@H](CN(C)C)c2ccccc2)C3(C)C)c2sccc2n1
Outline: as §1

[5] = compound: Cc1nc(Nc2ncc(C(=O)Nc3c(C)cccc3Cl)s2)cc(N2CCN(CCO)CC2)n1 [dasatinib]
Outline: as §1

[6] = compound: Cc1ncc(-c2ccnc(Nc3ccc(S(C)(=O)=O)cc3)n2)n1C(C)C
Outline: as §1

[7] = compound: Cn1cc(-c2ccc3c(c2)CCN3C(=O)Cc2cccc(C(F)(F)F)c2)c2c(N)ncnc21
Outline: as §1

[8] = compound: Cn1cc(-c2ccc3nnc(C(F)(F)c4ccc5ncccc5c4)n3n2)cn1
Outline: as §1

[9] = compound: Cn1cncc1[C@@](N)(c1ccc(Cl)cc1)c1ccc2c(c1)c(-c1cccc(Cl)c1)cc(=O)n2C [tipifarnib]
Outline: as §1

[10] = compound: FC(F)(F)c1ccc(/C=C/c2nc(COc3ccc(CCCCn4ccnn4)cc3)co2)cc1 [mubritinib]
Outline: as §1

[11] = compound: NC(=O)Nc1cc(-c2cccc(F)c2)sc1C(=O)N[C@H]1CCCNC1
Outline: as §1

[12] = compound: NC(=O)c1cnc(N[C@@H]2CCCC[C@@H]2N)nc1Nc1cccc(-n2nccn2)c1
Outline: as §1

[13] = compound: NC1(c2ccc(-c3nc4ccn5c(=O)[nH]nc5c4cc3-c3ccccc3)cc2)CCC1
Outline: as §1

[14] = compound: NCC(=O)Nc1ccc(-n2nc(C(F)(F)F)cc2-c2ccc3c(ccc4ccccc43)c2)cc1
Outline: as §1

[15] = compound: Nc1ccccc1NC(=O)c1ccc(CNC(=O)OCc2cccnc2)cc1 [entinostat]
Outline: as §1

[16] = compound: O=C(CCCCCCC(=O)Nc1ccccc1)NO [vorinostat]
Outline: as §1

[17] = compound: O=C(CCCCCCNC(=O)c1cnc(N(c2ccccc2)c2ccccc2Cl)nc1)NO [citarinostat]
Outline: as §1

[18] = compound: O=C(O)c1ccc2c(c1)nc(Nc1cccc(Cl)c1)c1ccncc12 [silmitasertib]
Outline: as §1

[19] = compound: O=C1NC(=O)C(c2cnc3ccccn23)=C1c1cn2c3c(cc(F)cc13)CN(C(=O)N1CCCCC1)CC2
Outline: as §1

[20] = compound: c1cc(OCCN2CCCCC2)cc(-c2n[nH]c3ccc(-c4nnc[nH]4)cc23)c1
Outline: as §1

Measured: log2 fold change

MUL1 (UniProt Q969V5)
active: [13] 0.648
inactive: [1] -0.018 | [2] 0.042 | [3] 0.004 | [4] 0.044 | [5] 0.011 | [6] -0.059 | [7] 0.036 | [8] 0.016 | [9] -0.037 | [10] -0.023 | [11] -0.029 | [12] -0.041 | [14] -0.024 | [15] -0.007 | [16] 0.086 | [17] -0.002 | [18] -0.018 | [19] -0.021 | [20] -0.049

MTMR9 (UniProt Q96QG7)
inactive: [1] -0.134 | [2] 0.011 | [3] 0.098 | [4] -0.049 | [5] -0.028 | [6] 0.053 | [7] 0.05 | [8] 0.016 | [9] -0.08 | [10] -0.013 | [12] -0.114 | [13] -0.076 | [14] 0.024 | [16] 0.013 | [17] -0.023 | [18] 0.019 | [19] -0.007 | [20] -0.034

MTX1 (UniProt Q13505)
inactive: [1] -0.04 | [2] -0.039 | [3] 0.061 | [4] -0.013 | [5] -0.034 | [6] -0.023 | [7] 0.082 | [8] -0.043 | [9] 0.026 | [10] 0.006 | [11] -0.092 | [12] 0.032 | [13] 0.03 | [14] 0.041 | [15] -0.01 | [16] -0.031 | [17] -0.021 | [18] 0.009 | [19] -0.072 | [20] -0.005

MRPS33 (UniProt Q9Y291)
inactive: [1] 0.123 | [2] 0.125 | [3] -0.129 | [4] 0.064 | [5] 0.031 | [6] -0.04 | [7] -0.033 | [8] 0.028 | [9] -0.003 | [10] 0.106 | [11] 0.019 | [12] 0.02 | [13] -0.032 | [14] 0.046 | [15] 0 | [16] 0.035 | [17] 0.039 | [18] -0.066 | [19] 0.016 | [20] -0.052

MTHFSD isoform 3 (UniProt Q2M296)
inactive: [1] 0.129 | [2] -0.198 | [5] 0.187 | [7] -0.203 | [8] -0.154 | [9] 0.086 | [10] -0.286 | [11] -0.404 | [12] -0.051 | [13] 0.339 | [14] 0.131 | [15] 0.201 | [16] 0.265 | [18] 0.012

Reprinted from the entries so far (two entries):
MRPS33 (UniProt Q9Y291)
inactive: [1] 0.123 | [2] 0.125 | [3] -0.129 | [4] 0.064 | [5] 0.031 | [6] -0.04 | [7] -0.033 | [8] 0.028 | [9] -0.003 | [10] 0.106 | [11] 0.019 | [12] 0.02 | [13] -0.032 | [14] 0.046 | [15] 0 | [16] 0.035 | [17] 0.039 | [18] -0.066 | [19] 0.016 | [20] -0.052

MTHFSD isoform 3 (UniProt Q2M296)
inactive: [1] 0.129 | [2] -0.198 | [5] 0.187 | [7] -0.203 | [8] -0.154 | [9] 0.086 | [10] -0.286 | [11] -0.404 | [12] -0.051 | [13] 0.339 | [14] 0.131 | [15] 0.201 | [16] 0.265 | [18] 0.012
